In patent US9266933B2 (SHANGHAI FIRST PEOPLE'S HOSPITAL, priority 2011, dated 2016):
Plain letter strings leave the end groups untold.

Experiment: general procedure: Fmoc solid-phase peptide synthesis; 2-Chlorotrityl Chloride Resin; HBTU
Conditions: whole synthesis

TANVTMQLLKIRSGDRPSYVELTFSQH (angiogenesis-inhibiting peptide ZY3)
final HPLC purity (run 1): >95%
final HPLC purity (run 2): over 99%
